Laboratory results reported in publication PMC8472677.
No constants are given. Whether binding was seen depends on the method and setting. Binding seen in cells or lysates may run through a third protein. Some binding calls cover weakened binding; strength is not graded here.

Sequences of proteins named here, by UniProt entry; tags and fusion partners are left off.
UniProt Q15796: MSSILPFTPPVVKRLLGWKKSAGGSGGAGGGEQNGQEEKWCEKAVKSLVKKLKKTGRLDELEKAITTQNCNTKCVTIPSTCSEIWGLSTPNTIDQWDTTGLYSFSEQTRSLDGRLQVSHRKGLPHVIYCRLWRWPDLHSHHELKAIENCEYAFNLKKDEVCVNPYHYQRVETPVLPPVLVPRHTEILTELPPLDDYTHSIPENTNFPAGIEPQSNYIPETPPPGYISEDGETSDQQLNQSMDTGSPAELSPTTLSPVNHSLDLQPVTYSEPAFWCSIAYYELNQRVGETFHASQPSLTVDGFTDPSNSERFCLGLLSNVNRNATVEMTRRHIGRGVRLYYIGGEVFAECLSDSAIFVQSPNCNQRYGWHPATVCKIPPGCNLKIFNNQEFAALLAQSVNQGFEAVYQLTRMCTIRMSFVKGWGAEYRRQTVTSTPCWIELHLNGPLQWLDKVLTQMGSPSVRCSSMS
UniProt Q92831: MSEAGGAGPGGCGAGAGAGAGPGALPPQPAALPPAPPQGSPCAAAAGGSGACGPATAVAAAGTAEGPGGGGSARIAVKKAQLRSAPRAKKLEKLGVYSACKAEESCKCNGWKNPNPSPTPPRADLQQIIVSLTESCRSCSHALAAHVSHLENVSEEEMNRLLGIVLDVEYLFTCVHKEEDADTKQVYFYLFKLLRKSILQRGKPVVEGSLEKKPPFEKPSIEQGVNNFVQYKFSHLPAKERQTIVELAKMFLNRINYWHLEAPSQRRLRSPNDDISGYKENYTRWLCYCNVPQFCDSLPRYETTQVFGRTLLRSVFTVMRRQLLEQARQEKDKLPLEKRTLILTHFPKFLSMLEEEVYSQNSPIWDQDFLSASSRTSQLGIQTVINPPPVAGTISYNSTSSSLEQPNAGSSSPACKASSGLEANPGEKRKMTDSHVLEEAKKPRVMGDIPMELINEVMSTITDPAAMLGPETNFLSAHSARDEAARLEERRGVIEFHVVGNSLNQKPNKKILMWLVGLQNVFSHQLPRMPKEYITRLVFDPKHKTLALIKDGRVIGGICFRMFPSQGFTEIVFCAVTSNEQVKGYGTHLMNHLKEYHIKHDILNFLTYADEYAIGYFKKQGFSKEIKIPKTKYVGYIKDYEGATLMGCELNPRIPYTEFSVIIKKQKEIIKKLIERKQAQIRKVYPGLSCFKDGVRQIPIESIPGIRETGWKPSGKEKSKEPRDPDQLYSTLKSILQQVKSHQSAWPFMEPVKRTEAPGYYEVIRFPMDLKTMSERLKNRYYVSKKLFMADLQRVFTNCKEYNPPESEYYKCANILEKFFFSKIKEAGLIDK

Target: mothers against decapentaplegic homolog 2 (SMAD2) (human (endogenous in NHCFs)) (UniProt Q15796)
Assay: co-IP; endogenous SMAD2 immunoprecipitated from 1-2 mg precleared NHCF lysate (RIPA buffer), protein A/G PLUS-Agarose, 4 °C, blot for PCAF; cells treated with TGF-β1; corresponding IgG as negative control

binding: binds
Substance: p300/CBP-associated factor (PCAF) (from UniProt Q92831 1-832)
